This is one part of the list.

Common to all, as to assay: glycan array binding signal (z-score within array); higher = stronger binding
Common to all, as to settings: glycan notation: IUPAC condensed, linker removed

Assay [1] addresses Gal(b1-4)GlcNAc(b1-3)GalNAc. A digest of the protocol: (§1)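 The binding signal is a Z-score computed within each array. Data were drawn from 3228 arrays in the Consortium for Functional Glycomics database, restricted to those with a known protein sequence. Scores were averaged over arrays of the same protein sequence at different concentrations or buffers, and over linkers, and negative values can be taken as non-binding.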

For assay [2], the target named is Gal(b1-4)GlcNAc(b1-3)[Fuc(a1-3)GlcNAc(b1-6)]Gal(b1-4)Glc. A digest of the protocol:
as §1

The target in assay [3] is Gal(b1-4)GlcNAc(b1-3)[Gal(b1-4)GlcNAc(b1-6)]Gal(b1-4)GlcNAc. A digest of the protocol: as §1
Assay [4] deals with Gal(b1-4)GlcNAc(b1-3)[GlcNAc(b1-6)]Gal(b1-4)GlcNAc. The essentials:
as §1

Assay [5] deals with Gal(b1-4)GlcNAc(b1-6)Gal(b1-4)GlcNAc. A digest of the protocol: as §1
Assay [6] addresses Gal(b1-4)GlcNAc(b1-6)GalNAc. The essentials: as §1
Assay [7] concerns the target Gal(b1-4)GlcNAc(b1-6)[Gal(b1-3)]GalNAc. The essentials: as §1
Assay [8] concerns the target Gal(b1-4)GlcNAc(b1-6)[Gal(b1-4)GlcNAc(b1-3)]GalNAc. The essentials: as §1
The target of assay [9] is Gal(b1-4)GlcNAc6P. A digest of the protocol: as §1
Assay [10] addresses Gal(b1-6)Gal. The essentials:
as §1

For assay [11], the target named is Gal3S(b1-3)GalNAc. A digest of the protocol:
as §1

Assay [12] addresses Gal3S(b1-3)GlcNAc. The essentials: as §1
For assay [13], the target named is Gal3S(b1-3)[Fuc(a1-4)]GlcNAc. A digest of the protocol:
as §1

The target in assay [14] is Gal3S(b1-4)Glc. The essentials: as §1
In assay [15] the target is Gal3S(b1-4)Glc6S. A digest of the protocol: as §1
Assay [16] addresses Gal3S(b1-4)GlcNAc. A digest of the protocol:
as §1

The target of assay [17] is Gal3S(b1-4)[Fuc(a1-3)]Glc6S. The essentials: as §1
The target of assay [18] is Gal3S(b1-4)[Fuc(a1-3)]GlcNAc. A digest of the protocol: as §1
Assay [19] addresses Gal3S(b1-4)[Fuc(a1-3)]GlcNAc6S. The essentials:
as §1

B1: ERGIC1-EDTA (Homo sapiens), Q969X5 (protein)
chain: MKFLVNVALVFMVVYISYIYAAAHMHHHHHHDYDIPTTENLYFQGSEVVNELYVDDPDKDSGGKIDVSLNISLPNLHCELVGLDIQDEMGRHEVGHIDNSMKIPLNNGAGCRFEGQFSINKVPGNFHVSTHSATAQPQNPDMTHVIHKLSFGDTLQVQNIHGAFNALGGADRLTSNPLASHDYILKIVPTVYEDKSGKQRYSYQYTVANKEYVAYSHTGRIIPAIWFRYDLSPITVKYTE
As for B1, the “glycan array binding signal (z-score)” value was -0.356 in [1]; -1.15 in [2]; -0.963 in [3]; -0.834 in assay [4]; 0.003 in assay [5]; 0.257 in [6]. The “glycan array binding signal (z-score)” value in assay [7] is -0.397; in assay [8] it was -0.361; in assay [9], 0.119; in [10] it was -0.644; in assay [11], 1.01; in assay [12] it was -0.221. Besides, the “glycan array binding signal (z-score)” value was 1.04 in assay [13]; -0.142 in assay [14]; 0.151 in assay [15]; -0.117 in [16]; 0.227 in assay [17]; 0.1 in assay [18]. In addition, the “glycan array binding signal (z-score)” value in assay [19] was -0.517.

The values above are taken from the supplement of paper PMC8728848.
